# In all, about 33,000 sequences were measured (“E-score (-0.5 to 0.5)”: median about -0.0059, highest 2% from about 0.26 on). Some of the results follow.
# Biological target: T1, Cin5 (UniProt P40917)
# T1 sequence: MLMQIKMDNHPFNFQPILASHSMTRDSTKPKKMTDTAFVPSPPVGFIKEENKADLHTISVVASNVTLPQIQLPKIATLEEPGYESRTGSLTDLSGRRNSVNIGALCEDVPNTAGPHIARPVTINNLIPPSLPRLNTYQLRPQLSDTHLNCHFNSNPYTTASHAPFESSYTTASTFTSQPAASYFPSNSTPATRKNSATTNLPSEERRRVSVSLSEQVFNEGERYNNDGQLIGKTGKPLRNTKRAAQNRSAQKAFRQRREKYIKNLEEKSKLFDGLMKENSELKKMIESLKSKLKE
# Test: PBM E-score (8-mer binding enrichment) (E-score (-0.5 to 0.5)); higher = stronger / more preferred TF binding
# Conditions: protein concentration: 100 nM; construct: GST-full length
# Outline: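 Universal all-10-mer Agilent arrays, fresh or stripped once, were converted to double-stranded form by primer extension. GST-tagged yeast transcription factors from PURExpress in vitro transcription/translation, full-length or DNA-binding domain only, were applied at about 100-200 nM and detected with fluorescent anti-GST. After masliner normalisation, the Universal PBM Analysis Suite scored each ungapped eight-base word together with its reverse complement by E-score.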
row,Sequence,PBM E-score
1,CCGCTCAA,0.0248
2,AGACACTG,0.0311
3,GCCTCCGA,-0.231
4,ATCAGCGC,0.0878
5,CTGCATCA,0.0824
6,AGGGGAAG,-0.111
7,CCTGTGTC,-0.126
8,CGTAGTAC,-0.00669
9,GATCGGGA,-0.192
10,CTAAATAG,0.00124
11,AGTCAATG,0.00288
12,AAGAAAGA,0.0854
13,GGTGCCGA,-0.0421
14,CTAGAAAC,-0.0492
15,ACGGTCGG,-0.1
16,TGATCGCA,-0.143
17,AGCTCTCG,-0.178
18,ATCTGACA,0.0684
19,CCATGTAG,-0.00831
20,AATGCCCT,-0.0806
21,CAGGTAAC,-0.134
22,CGTATCTA,0.0495

row,Sequence,PBM E-score
1,ACAGAAAC,0.185
2,CGATATCG,0.114
3,CCCTCAAC,-0.188
4,AGATGAGG,-0.121
5,GAAACCTC,-0.0374
6,AGGAGTGC,-0.112
7,CCTCTCCG,-0.321
8,AGTGACAA,0.114
9,AGTAGGCA,0.187
10,ACGACTCG,-0.193
11,TCACGACA,-0.0753
12,TTACGAAA,0.218
13,AAGCCATT,0.0431
14,AACTATTG,0.194
15,AGTAACCC,0.133
16,CCCAAAGC,-0.127
17,ATAGCTTC,-0.0919
18,GATACTAC,0.161
19,CTCGGGTC,0.0273
20,AGGAGGCC,-0.298
21,GAATATAA,0.112
22,CGGTAATA,0.181

row,Sequence,PBM E-score
1,ACGTAGCA,0.0726
2,CGCCTTCC,-0.228
3,AAGGTTAA,0.0178
4,CGACGACC,0.01
5,ATTCCAAC,0.038
6,GCCCGGCC,-0.261
7,GGCGGATA,0.0745
8,AAACATTC,0.0964
9,AGCCGGAA,0.184
10,AGATTAGG,0.0277
11,CGTGCGTA,-0.137
12,GCCAACCA,-0.165
13,GAATGTAA,0.241
14,CGCGCTAA,0.225
15,CGAGCACA,0.148
16,AGCCTTTG,-0.169
17,AACGGAAT,0.212
18,ACAGCCGA,-0.165
19,CTAAGATC,0.103
20,CCCAATAG,-0.0254
21,AGCGTTTC,-0.137
22,GGTAGGTA,0.00439

row,Sequence,PBM E-score
1,GCGTCCGA,-0.0919
2,ATCCTGTG,0.0179
3,CCAGTCGG,-0.178
4,GATAGACA,-0.0361
5,AATAATTA,0.35
6,ATGGGCGG,0.21
7,AAGTATGG,0.12
8,ATTAGTAC,0.173
9,CATTAGCA,-0.00263
10,TGACCTAA,0.209
11,CTTTCCGC,0.0716
12,AGGTGACT,-0.121
13,CCACATTC,0.0858
14,GCAGATCC,-0.00135
15,AGGGGGCC,-0.423
16,AAAACTCG,0.065
17,TCACTGAA,0.106
18,CATCTCTC,0.0681
19,AGTCGTTC,-0.112
20,AGATGGAT,0.104
21,CACCTCGA,0.224
22,ACTCAAAA,0.0884

row,Sequence,PBM E-score
1,CCTGCGCC,-0.209
2,CCCAGGTC,-0.165
3,ATTCTTAC,0.251
4,ATTAGAGG,-0.25
5,ATATAGAC,0.101
6,CACCGTAA,0.124
7,CCCCAGAC,-0.161
8,ACGCAACG,-0.0278
9,GGAAATAC,0.118
10,AGCGTTAC,-0.0689
11,AGTCCGAC,-0.164
12,AGAACGGA,-0.0999
13,ATGGAGAA,0.147
14,TAAGATGA,0.079
15,ATCCGTAG,-0.189
16,CTGCAATC,0.0796
17,GACAATAC,0.223
18,CTGTCAGA,-0.0993
19,CCTCGACA,-0.17
20,CTACAGTA,0.129
21,CAGCCACC,-0.111

# From the supplement of paper PMC3334620
